Results deposited as PubChem BioAssay AID1259254 (NCATS, 2017)

Assay: 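Gene knock-downs that lead to re-replication, shown by excess G2 DNA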 (primary screen)
System: human HCT116 colorectal cancer cells
Knock-down reagent: single siRNA against human genes
Timing: 3 days
Detection: 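Imaged Hoechst DNA stain sorts each cell into a cycle phase by DNA amount; per plate, G2 fraction set to 0% for non-targeting and 100% for GMNN siRNA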
Reading the numbers: G2 robust z-score and G2 cells, % of GMNN control: higher = more G2 cells, more excess DNA replication; raw share of cells in G2: higher = larger share of cells with G2 DNA content
Rule for the call: 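Active siRNAs have a G2 robust z of 5 or more median absolute deviations over the median, which in these data means about 38% or higher of GMNN control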
The deposit covers about 59,000 reagents; this is an unselected part. Of all reagents, about 1,550 (2.6%) got an active call. 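G2 share is only a proxy for re-replication; each gene was hit by three separate siRNAs, and active genes were retested.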 Raw values are not corrected between plates. Unmarked entries are inactive. Not stated in the record: the amount of reagent.

gene | PubChem SID | G2 robust z-score | G2 cells, % of GMNN control | raw share of cells in G2 (%)
NHS (NHS actin remodeling regulator) | SID160778066 | -0.555 | -0.936 | 4.57
NHS (NHS actin remodeling regulator) | SID160778067 | -0.288 | 0.941 | 4.59
NHS (NHS actin remodeling regulator) | SID160778068 | 0.471 | 6.28 | 5.62
MIF4GD (MIF4G domain containing) | SID160745950 | 0.52 | 6.62 | 8.39
MIF4GD (MIF4G domain containing) | SID160745951 | -0.762 | -2.4 | 3.5
MIF4GD (MIF4G domain containing) | SID160745952 | 5.45 (active) | 41.3 | 19.2
GH2 (growth hormone 2) | SID160730948 | 0.193 | 4.33 | 6.81
GH2 (growth hormone 2) | SID160770735 | -0.207 | 1.51 | 4.2
GH2 (growth hormone 2) | SID160770745 | -0.999 | -4.06 | 3.72
NOM1 (nucleolar protein with MIF4G domain 1) | SID160731728 | -0.599 | -1.25 | 5.13
NOM1 (nucleolar protein with MIF4G domain 1) | SID160747798 | -0.103 | 2.24 | 5.14
NOM1 (nucleolar protein with MIF4G domain 1) | SID160747799 | 1.19 | 11.3 | 8.33
TMEM192 (transmembrane protein 192) | SID160761034 | -1.37 | -6.7 | 1.2
TMEM192 (transmembrane protein 192) | SID160761035 | -0.379 | 0.302 | 3.06
TMEM192 (transmembrane protein 192) | SID160761036 | 0.617 | 7.31 | 5.07
EXOSC8 (exosome component 8) | SID160730936 | -0.12 | 2.13 | 4.59
EXOSC8 (exosome component 8) | SID160730946 | 1.18 | 11.3 | 7.93
EXOSC8 (exosome component 8) | SID160730954 | 1.18 | 11.3 | 10.9
SMPDL3B (sphingomyelin phosphodiesterase acid like 3B) | SID160738666 | 1.22 | 11.5 | 11.4
SMPDL3B (sphingomyelin phosphodiesterase acid like 3B) | SID160738669 | -1.19 | -5.38 | 2.4
SMPDL3B (sphingomyelin phosphodiesterase acid like 3B) | SID160738670 | 0.277 | 4.92 | 5.6
RASD1 (ras related dexamethasone induced 1) | SID160741164 | -1.23 | -5.72 | 2.13
RASD1 (ras related dexamethasone induced 1) | SID160741166 | -1.4 | -6.86 | 1.17
RASD1 (ras related dexamethasone induced 1) | SID160741167 | 1.68 | 14.8 | 12.7
SH2D3C (SH2 domain containing 3C) | SID160724378 | -0.822 | -2.82 | 4.06
SH2D3C (SH2 domain containing 3C) | SID160724386 | -0.246 | 1.23 | 4.46
SH2D3C (SH2 domain containing 3C) | SID160724396 | 0.247 | 4.71 | 5.12
XYLT2 (xylosyltransferase 2) | SID160731719 | 2.85 | 23 | 15.2
XYLT2 (xylosyltransferase 2) | SID160747513 | 6.91 (active) | 51.6 | 23
XYLT2 (xylosyltransferase 2) | SID160747514 | -0.753 | -2.33 | 3.52
TADA3 (transcriptional adaptor 3) | SID160728514 | -0.581 | -1.12 | 3.15
TADA3 (transcriptional adaptor 3) | SID160728515 | -0.755 | -2.34 | 4.94
TADA3 (transcriptional adaptor 3) | SID160728517 | -0.0403 | 2.68 | 4.46
SESN2 (sestrin 2) | SID160751301 | 0.294 | 5.03 | 5.78
SESN2 (sestrin 2) | SID160751302 | 1.21 | 11.5 | 6.86
SESN2 (sestrin 2) | SID160751303 | -0.491 | -0.488 | 2.26
APC2 (APC regulator of Wnt signaling pathway 2) | SID160728112 | -0.471 | -0.347 | 6.34
APC2 (APC regulator of Wnt signaling pathway 2) | SID160728113 | 2.98 | 24 | 11.6
APC2 (APC regulator of Wnt signaling pathway 2) | SID160728114 | -1.56 | -8.01 | 2.22
AHSA1 (activator of HSP90 ATPase activity 1) | SID160728819 | -0.705 | -1.99 | 4.83
AHSA1 (activator of HSP90 ATPase activity 1) | SID160728820 | 11.8 (active) | 86 | 31.7
AHSA1 (activator of HSP90 ATPase activity 1) | SID160728821 | -0.153 | 1.89 | 7.22
KDELR1 (KDEL endoplasmic reticulum protein retention receptor 1) | SID160768224 | -0.774 | -2.48 | 3.04
KDELR1 (KDEL endoplasmic reticulum protein retention receptor 1) | SID160768314 | -0.602 | -1.27 | 5.98
KDELR1 (KDEL endoplasmic reticulum protein retention receptor 1) | SID160768404 | -0.72 | -2.1 | 4.78
RPL21 (ribosomal protein L21) | SID160716061 | 3.63 | 28.5 | 17.1
RPL21 (ribosomal protein L21) | SID160716062 | 1.6 | 14.2 | 9.83
RPL21 (ribosomal protein L21) | SID160716063 | 2.91 | 23.5 | 11.8
SEPTIN5 (septin 5) | SID160714579 | -0.443 | -0.152 | 4.93
SEPTIN5 (septin 5) | SID160714580 | 0.336 | 5.33 | 6.71
SEPTIN5 (septin 5) | SID160731447 | 10.9 (active) | 80 | 30.8
MFNG (MFNG O-fucosylpeptide 3-beta-N-acetylglucosaminyltransferase) | SID160777194 | 5.29 (active) | 40.2 | 21.4
MFNG (MFNG O-fucosylpeptide 3-beta-N-acetylglucosaminyltransferase) | SID160777195 | -1.29 | -6.09 | 3.01
MFNG (MFNG O-fucosylpeptide 3-beta-N-acetylglucosaminyltransferase) | SID160777196 | -1.39 | -6.81 | 0.947
RORC (RAR related orphan receptor C) | SID160715988 | -0.725 | -2.14 | 4.96
RORC (RAR related orphan receptor C) | SID160715990 | 2.11 | 17.8 | 10.6
RORC (RAR related orphan receptor C) | SID160715991 | -1.44 | -7.15 | 1.59
INTS14 (integrator complex subunit 14) | SID160750803 | 1.99 | 16.9 | 11.5
INTS14 (integrator complex subunit 14) | SID160750804 | 0.3 | 5.08 | 6.52
INTS14 (integrator complex subunit 14) | SID160750805 | -1.1 | -4.78 | 1.07
ALAS1 (5'-aminolevulinate synthase 1) | SID160716082 | 4.59 | 35.2 | 16.7
ALAS1 (5'-aminolevulinate synthase 1) | SID160716093 | 0.621 | 7.34 | 7.69
ALAS1 (5'-aminolevulinate synthase 1) | SID160716103 | -1.26 | -5.89 | 1.8
MUC20 (mucin 20, cell surface associated) | SID160760921 | 0.957 | 9.7 | 7.08
MUC20 (mucin 20, cell surface associated) | SID160760922 | -0.291 | 0.918 | 3.27
MUC20 (mucin 20, cell surface associated) | SID160760923 | -0.973 | -3.88 | 1.53
LELP1 (late cornified envelope like proline rich 1) | SID160724869 | -0.67 | -1.75 | 2.46
LELP1 (late cornified envelope like proline rich 1) | SID160758766 | 1.34 | 12.4 | 7.97
LELP1 (late cornified envelope like proline rich 1) | SID160758767 | -0.924 | -3.54 | 1.82
